The name of at least one read-out is uncertain.
Experiment: Body weight effect on plasma tazarotenic acid Cmax and AUC (Example 7)
Type: in vivo, human
Conditions: single daily dose of 6 mg of tazarotene, healthy volunteers of differing body weights; p>0.05
Description: The LC-MS/MS test for simultaneous detection of tazarotene and tazarotenic acid may be run as follows. One ml of plasma (EDTA-treated) is diluted with 1.0 ml of water. Diluted plasma is extracted using solid phase extraction (SPE) on a C18 cartridge. The eluate is evaporated, reconstituted in a water/methanol-based mobile phase, and injected onto a 4.6×50 mm, 3 μm pore size C-8 reverse phase high pressure liquid chromatography (HPLC) column (Agilent, Wilmington, Del.). Compounds are gradient-eluted at 1.2 mL/min and detected using an API 3000 triple quadrupole mass spectrometer with an Atmospheric Pressure Chemical Ionization (APCI) source (PE-Sciex, Concord, Ontario, Canada). Molecular reaction monitoring enhances the sensitivity and selectivity of this assay by collisionally dissociating the protonated molecules for the analyte and an internal standard thereby forming the product ions. The specific precursor-product ion pair monitored are m/z 352→324 for tazarotene, m/z 359→331 for the tazarotene internal standard, m/z 324→294 for tazarotenic acid, and m/z 331+298 for the tazarotenic acid internal standard. The lower limit of quantitation at assay range tested is 0.1 ng/mL, with a coefficient of variation and deviation from nominal concentration of <15%. […]

SMILES: CC1(C)CCSc2ccc(C#Cc3ccc(C(=O)O)cn3)cc21 [tazarotenic acid]
- effect of body weight on plasma tazarotenic acid Cmax and AUC: no effect of body weight on systemic tazarotenic acid exposure

— patent US20050026949A1, “Methods of therapeutic treatment using amounts of retinoids without regard to body weight” (Allergan, Inc., priority 2003, published 2005)
